No constants are given. Whether binding was seen depends on the method and setting. In cells and extracts the contact can be indirect. Some binding calls cover weakened binding; strength is not graded here.
Assays:
Experiment in all cases: co-IP; RIPA lysate (80 ug protein) of NSCLC cells; IP with anti-EGFR (CST #2085), anti-NK1R (Abcam ab183713) or IgG at 4 °C overnight, protein A+G agarose beads 3 h at 4 °C, washed with PBS three times, immunoblot; cells untreated, treated with hHK-1 or aprepitant for 24 h, or overexpressing NK1R
[1] = biological target: Epidermal growth factor receptor (human (endogenous in A549 and NCI-H1944)) (UniProt P00533)
[2] = biological target: EGFR/L858R/T790M (human (endogenous in NCI-H1975)) (UniProt P00533)
[3] = biological target: Neurokinin-1 receptor (human (endogenous in A549 and NCI-H1944)) (UniProt P25103)
[4] = biological target: Neurokinin-1 receptor, overexpressed (UniProt P25103)

Amino acid sequences for entries named in this document (tags omitted).
UniProt P25103: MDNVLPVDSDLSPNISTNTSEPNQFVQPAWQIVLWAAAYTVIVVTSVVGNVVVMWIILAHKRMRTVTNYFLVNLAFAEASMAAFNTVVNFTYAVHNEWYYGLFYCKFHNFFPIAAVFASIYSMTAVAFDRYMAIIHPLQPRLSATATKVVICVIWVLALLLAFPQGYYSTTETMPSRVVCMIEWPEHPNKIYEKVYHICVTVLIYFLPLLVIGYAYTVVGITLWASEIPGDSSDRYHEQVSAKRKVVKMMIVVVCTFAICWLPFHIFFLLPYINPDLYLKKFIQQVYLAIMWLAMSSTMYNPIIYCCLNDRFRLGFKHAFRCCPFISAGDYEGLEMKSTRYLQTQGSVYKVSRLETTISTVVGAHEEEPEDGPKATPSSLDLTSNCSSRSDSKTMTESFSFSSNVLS

binding [1] | binding [2] | binding [3] | binding [4] | Substance
binds | binds | – | – | Neurokinin-1 receptor (from UniProt P25103 1-407)
– | – | binds | binds | Epidermal growth factor receptor (from UniProt P00533 25-1210)

— publication PMC8748918
